Test results from PMC7962367.
No constants are given. Whether binding was seen depends on the method and setting. In cells and extracts the contact can be indirect. Some entries that bind do so weakly or less than the wild type.

The chains behind the UniProt entries cited, without tags or fusion partners.
UniProt P63086: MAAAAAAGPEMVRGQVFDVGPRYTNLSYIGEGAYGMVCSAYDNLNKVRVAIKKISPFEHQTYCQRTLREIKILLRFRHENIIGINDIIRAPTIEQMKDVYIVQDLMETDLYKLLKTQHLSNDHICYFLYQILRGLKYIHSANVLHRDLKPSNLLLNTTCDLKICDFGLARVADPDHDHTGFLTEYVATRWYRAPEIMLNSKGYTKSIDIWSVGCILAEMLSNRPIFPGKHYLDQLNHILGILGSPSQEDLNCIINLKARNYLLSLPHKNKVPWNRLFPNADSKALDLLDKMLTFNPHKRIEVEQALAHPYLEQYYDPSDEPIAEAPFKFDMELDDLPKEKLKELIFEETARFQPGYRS

Target: T1, endogenous USP15 (rat (endogenous in rat articular chondrocytes)) (UniProt Q9R085)
T1 sequence: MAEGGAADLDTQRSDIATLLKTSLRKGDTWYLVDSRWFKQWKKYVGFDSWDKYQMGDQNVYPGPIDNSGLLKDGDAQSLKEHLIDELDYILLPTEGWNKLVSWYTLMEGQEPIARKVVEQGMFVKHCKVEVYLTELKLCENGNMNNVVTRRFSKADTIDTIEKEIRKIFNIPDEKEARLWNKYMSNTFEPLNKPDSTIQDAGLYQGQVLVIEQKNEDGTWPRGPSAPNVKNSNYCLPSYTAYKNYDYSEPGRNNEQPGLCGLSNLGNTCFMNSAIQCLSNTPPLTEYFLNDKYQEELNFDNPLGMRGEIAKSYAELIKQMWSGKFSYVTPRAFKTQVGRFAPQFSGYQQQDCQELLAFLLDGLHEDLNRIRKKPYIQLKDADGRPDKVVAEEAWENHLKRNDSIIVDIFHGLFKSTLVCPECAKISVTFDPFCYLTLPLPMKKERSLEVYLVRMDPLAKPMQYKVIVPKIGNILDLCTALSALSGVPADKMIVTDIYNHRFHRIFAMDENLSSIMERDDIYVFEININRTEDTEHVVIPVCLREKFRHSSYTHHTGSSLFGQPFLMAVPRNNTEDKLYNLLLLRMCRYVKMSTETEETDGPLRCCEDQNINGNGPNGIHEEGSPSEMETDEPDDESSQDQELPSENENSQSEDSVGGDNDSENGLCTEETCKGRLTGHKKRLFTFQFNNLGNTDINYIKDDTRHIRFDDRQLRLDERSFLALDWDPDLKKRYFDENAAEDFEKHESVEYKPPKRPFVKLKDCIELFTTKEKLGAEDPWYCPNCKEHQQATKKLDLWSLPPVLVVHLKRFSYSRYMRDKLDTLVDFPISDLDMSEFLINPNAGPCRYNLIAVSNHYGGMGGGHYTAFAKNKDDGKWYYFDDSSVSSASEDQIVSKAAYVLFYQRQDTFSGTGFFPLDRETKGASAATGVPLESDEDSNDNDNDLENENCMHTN
Assay: co-IP; rat articular chondrocytes lysed in RIPA buffer; immunoprecipitation with anti-USP15 antibody and Protein A/G PLUS-Agarose overnight at 4 °C, four washes in RIPA; blots with anti-USP15 or anti-ERK2; IgG as negative control

- binding: binds
Substance: endogenous ERK2 (from UniProt P63086 1-358) (enzyme)
